Data as given in publication doi:10.1101/2020.10.14.339929.

Amino acid sequences for entries named in this document (tags omitted).
UniProt Q01094: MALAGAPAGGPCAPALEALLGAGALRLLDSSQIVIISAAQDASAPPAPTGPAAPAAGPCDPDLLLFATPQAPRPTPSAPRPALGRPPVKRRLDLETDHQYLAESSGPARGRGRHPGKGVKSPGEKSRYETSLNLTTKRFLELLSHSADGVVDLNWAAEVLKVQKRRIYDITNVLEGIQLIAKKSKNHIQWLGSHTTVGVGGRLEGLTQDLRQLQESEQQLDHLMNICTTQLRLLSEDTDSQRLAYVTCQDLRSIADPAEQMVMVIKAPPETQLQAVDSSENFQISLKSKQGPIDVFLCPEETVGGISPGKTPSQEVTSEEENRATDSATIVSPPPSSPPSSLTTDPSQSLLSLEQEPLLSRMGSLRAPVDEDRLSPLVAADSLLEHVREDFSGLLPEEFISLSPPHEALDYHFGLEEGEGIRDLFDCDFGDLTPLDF
UniProt O09106: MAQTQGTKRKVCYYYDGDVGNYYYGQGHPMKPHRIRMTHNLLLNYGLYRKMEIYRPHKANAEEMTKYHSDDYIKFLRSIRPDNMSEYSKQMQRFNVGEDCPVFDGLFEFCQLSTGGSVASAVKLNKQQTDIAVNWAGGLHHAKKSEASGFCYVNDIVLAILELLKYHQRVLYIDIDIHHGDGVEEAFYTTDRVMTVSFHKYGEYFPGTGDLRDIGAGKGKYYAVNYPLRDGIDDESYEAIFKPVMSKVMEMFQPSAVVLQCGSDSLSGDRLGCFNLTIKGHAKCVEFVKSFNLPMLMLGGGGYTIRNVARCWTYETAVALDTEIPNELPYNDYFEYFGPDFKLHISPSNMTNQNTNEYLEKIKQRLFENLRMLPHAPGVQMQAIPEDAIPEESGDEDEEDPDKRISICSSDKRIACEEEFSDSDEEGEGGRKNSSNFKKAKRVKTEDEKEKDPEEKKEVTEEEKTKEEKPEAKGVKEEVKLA

Molecular target: human E2F1 coupled to a FLAG tag (pCMV-hE2F1-FLAG) (human) (UniProt Q01094)
Assay: affinity purification with mass spectrometry

Molecule: HDAC1 (from UniProt O09106 1-482) (enzyme)
- binding: binds

B1: HDAC6 (enzyme, UniProt Q9Z2V5 1-1149)
chain: MTSTGQDSSTRQRKSRHNPQSPLQESSATLKRGGKKCAVPHSSPNLAEVKKKGKMKKLSQPAEEDLVVGLQGLDLNPETRVPVGTGLVFDEQLNDFHCLWDDSFPESPERLHAIREQLILEGLLGRCVSFQARFAEKEELMLVHSLEYIDLMETTQYMNEGELRVLAETYDSVYLHPNSYSCACLATGSVLRLVDALMGAEIRNGMAVIRPPGHHAQHNLMDGYCMFNHLAVAARYAQKKHRIQRVLIVDWDVHHGQGTQFIFDQDPSVLYFSIHRYEHGRFWPHLKASNWSTIGFGQGQGYTINVPWNQTGMRDADYIAAFLHILLPVASEFQPQLVLVAAGFDALHGDPKGEMAATPAGFAHLTHLLMGLAGGKLILSLEGGYNLRALAKGVSASLHTLLGDPCPMLESCVVPCASAQTSIYCTLEALEPFWEVLERSVETQEEDEVEEAVLEEEEEEGGWEATALPMDTWPLLQNRTGLVYDEKMMSHCNLWDNHHPETPQRILRIMCHLEEVGLAARCLILPARPALDSELLTCHSAEYVEHLRTTEKMKTRDLHREGANFDSIYICPSTFACAKLATGAACRLVEAVLSGEVLNGIAVVRPPGHHAEPNAACGFCFFNSVAVAARHAQIIAGRALRILIVDWDVHHGNGTQHIFEDDPSVLYVSLHRYDRGTFFPMGDEGASSQVGRDAGIGFTVNVPWNGPRMGDADYLAAWHRLVLPIAYEFNPELVLISAGFDAAQGDPLGGCQVTPEGYAHLTHLLMGLAGGRIILILEGGYNLASISESMAACTHSLLGDPPPQLTLLRPPQSGALVSISEVIQVHRKYWRSLRLMKMEDKEECSSSRLVIKKLPPTASPVSAKEMTTPKGKVPEESVRKTIAALPGKESTLGQAKSKMAKAVLAQGQSSEQAAKGTTLDLATSKETVGGATTDLWASAAAPENFPNQTTSVEALGETEPTPPASHTNKQTTGASPLQGVTAQQSLQLGVLSTLELSREAEEAHDSEEGLLGEAAGGQDMNSLMLTQGFGDFNTQDVFYAVTPLSWCPHLMAVCPIPAAGLDVSQPCKTCGTVQENWVCLTCYQVYCSRYVNAHMVCHHEASEHPLVLSCVDLSTWCYVCQAYVHHEDLQDVKNAAHQNKFGEDMPHSH
- binding: binds

No constants are given. Whether binding was seen depends on the method and setting. In cells and extracts the contact can be indirect. Here binding means that the protein was enriched with, or labelled near, the bait; the list need not be complete.
